Test results published in the supplement of paper PMC12823440, “Inhibitors supercharge kinase turnover through native proteolytic circuits” (Nature, 2025).
Counter-ions that a name gives are not always drawn. The list shows a part of the results. Hit calls seldom repeat between salt and free forms of one compound.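 In K562 cells expressing nanoluciferase-fused kinases, luminescence was recorded at 4 h intervals between 2 and 18 h, normalized as percent of control with DMSO at 100% and a positive control at 0%. A significant (2 sigma) signal drop marks a time point as decreased. The authors' rule for a hit is not shown and takes in more than the number of time points.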

By UniProt entry, the sequences of proteins in these tests, tags left out. Where a name states a change or a piece, a line headed by the entry shows the natural chain unless it says otherwise.
UniProt Q9Y616: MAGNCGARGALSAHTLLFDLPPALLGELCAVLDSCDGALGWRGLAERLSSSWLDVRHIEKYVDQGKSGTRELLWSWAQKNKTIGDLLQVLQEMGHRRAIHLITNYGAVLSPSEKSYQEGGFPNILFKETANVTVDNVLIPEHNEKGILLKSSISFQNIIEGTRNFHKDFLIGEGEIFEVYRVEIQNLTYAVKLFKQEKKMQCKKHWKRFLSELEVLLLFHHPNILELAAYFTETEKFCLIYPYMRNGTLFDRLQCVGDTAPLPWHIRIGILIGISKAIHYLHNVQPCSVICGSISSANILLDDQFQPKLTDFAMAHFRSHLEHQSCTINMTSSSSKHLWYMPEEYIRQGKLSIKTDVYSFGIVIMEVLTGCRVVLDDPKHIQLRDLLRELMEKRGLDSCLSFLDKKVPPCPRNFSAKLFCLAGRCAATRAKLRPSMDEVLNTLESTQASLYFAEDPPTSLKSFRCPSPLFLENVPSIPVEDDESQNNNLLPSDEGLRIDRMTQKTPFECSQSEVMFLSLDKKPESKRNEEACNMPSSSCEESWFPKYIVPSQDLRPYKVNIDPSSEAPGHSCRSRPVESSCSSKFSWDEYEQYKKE
UniProt P06239: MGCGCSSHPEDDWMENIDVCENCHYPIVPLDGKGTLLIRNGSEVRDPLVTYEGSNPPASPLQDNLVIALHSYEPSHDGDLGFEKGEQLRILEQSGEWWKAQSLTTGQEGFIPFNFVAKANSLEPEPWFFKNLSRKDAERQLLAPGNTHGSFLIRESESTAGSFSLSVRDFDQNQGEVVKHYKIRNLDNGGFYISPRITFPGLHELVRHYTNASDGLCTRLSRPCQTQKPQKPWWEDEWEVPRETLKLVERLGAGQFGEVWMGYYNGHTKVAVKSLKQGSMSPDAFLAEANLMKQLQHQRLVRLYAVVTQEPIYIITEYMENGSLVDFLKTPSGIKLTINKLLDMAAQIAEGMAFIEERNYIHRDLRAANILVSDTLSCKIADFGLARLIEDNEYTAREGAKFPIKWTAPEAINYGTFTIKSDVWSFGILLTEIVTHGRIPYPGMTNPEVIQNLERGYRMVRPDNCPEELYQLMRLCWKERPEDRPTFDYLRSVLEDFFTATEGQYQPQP
UniProt P53667: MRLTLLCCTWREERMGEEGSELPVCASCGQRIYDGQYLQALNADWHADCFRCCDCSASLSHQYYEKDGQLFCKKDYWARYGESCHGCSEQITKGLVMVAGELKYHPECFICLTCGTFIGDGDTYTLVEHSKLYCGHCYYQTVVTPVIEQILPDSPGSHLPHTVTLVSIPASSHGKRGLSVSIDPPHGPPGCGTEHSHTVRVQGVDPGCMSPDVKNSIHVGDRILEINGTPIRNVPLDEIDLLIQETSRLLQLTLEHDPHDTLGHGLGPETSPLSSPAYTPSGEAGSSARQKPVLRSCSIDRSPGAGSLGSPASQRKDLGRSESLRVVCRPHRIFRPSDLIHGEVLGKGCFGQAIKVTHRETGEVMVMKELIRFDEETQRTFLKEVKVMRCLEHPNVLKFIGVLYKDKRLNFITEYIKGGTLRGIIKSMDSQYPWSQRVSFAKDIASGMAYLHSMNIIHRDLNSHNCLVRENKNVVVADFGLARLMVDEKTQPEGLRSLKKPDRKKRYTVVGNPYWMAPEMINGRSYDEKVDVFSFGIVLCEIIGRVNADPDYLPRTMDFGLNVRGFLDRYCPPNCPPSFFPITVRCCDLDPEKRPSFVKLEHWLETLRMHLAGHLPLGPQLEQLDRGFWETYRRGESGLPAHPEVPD
UniProt P53671: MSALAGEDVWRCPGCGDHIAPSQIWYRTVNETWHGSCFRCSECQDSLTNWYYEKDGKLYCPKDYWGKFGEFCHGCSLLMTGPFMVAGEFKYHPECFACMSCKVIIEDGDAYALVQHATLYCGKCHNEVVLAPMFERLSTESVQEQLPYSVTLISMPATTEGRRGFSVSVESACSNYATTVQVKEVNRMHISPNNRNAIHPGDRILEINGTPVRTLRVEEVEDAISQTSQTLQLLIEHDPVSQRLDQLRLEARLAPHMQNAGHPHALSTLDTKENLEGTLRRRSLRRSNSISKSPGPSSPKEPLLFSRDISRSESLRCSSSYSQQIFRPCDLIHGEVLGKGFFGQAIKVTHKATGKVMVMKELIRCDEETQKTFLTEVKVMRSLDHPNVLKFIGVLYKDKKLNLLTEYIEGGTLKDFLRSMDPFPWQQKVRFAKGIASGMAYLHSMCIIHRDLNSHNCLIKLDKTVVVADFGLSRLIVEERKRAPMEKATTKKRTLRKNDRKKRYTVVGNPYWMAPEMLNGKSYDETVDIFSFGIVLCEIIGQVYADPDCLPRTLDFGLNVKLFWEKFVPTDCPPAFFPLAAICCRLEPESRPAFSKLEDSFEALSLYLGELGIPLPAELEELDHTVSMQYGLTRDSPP
UniProt Q8IWU2: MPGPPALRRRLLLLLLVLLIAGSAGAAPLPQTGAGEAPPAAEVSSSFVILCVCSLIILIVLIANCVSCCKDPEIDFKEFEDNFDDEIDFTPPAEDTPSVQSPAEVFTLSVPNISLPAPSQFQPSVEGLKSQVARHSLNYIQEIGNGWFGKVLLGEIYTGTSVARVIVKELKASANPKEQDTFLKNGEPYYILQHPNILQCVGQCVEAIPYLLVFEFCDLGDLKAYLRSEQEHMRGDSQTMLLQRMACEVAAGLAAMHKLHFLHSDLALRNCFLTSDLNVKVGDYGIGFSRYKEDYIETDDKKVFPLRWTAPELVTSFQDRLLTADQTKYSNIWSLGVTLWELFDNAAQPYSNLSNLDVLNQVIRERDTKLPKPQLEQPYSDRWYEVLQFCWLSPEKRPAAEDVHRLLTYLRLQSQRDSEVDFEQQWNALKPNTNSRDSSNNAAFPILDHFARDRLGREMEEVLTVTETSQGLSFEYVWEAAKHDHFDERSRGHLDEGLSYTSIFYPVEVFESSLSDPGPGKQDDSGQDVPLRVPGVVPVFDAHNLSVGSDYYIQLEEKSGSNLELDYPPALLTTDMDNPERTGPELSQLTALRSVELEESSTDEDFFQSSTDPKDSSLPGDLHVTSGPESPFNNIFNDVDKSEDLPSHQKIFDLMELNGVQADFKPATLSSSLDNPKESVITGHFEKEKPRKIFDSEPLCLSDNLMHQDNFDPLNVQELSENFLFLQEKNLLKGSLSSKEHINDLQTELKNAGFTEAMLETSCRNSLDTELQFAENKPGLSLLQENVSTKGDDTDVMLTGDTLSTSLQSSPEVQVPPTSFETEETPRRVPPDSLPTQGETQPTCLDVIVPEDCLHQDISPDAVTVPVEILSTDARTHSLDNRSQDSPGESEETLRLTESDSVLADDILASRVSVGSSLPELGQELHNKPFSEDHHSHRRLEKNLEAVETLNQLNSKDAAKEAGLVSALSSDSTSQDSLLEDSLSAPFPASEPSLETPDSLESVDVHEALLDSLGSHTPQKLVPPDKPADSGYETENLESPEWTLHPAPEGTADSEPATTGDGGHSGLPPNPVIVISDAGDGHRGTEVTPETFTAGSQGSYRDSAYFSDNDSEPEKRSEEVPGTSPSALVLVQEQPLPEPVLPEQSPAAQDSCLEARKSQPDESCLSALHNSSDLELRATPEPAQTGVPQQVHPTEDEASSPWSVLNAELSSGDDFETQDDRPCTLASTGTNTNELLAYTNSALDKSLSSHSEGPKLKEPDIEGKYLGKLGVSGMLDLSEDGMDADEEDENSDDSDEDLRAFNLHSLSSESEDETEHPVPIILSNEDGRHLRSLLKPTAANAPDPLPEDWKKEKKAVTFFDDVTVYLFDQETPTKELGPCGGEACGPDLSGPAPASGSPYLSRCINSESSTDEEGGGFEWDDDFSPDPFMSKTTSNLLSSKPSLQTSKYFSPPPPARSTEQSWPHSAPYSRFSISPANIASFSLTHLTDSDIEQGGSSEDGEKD
UniProt P28482, whole entry: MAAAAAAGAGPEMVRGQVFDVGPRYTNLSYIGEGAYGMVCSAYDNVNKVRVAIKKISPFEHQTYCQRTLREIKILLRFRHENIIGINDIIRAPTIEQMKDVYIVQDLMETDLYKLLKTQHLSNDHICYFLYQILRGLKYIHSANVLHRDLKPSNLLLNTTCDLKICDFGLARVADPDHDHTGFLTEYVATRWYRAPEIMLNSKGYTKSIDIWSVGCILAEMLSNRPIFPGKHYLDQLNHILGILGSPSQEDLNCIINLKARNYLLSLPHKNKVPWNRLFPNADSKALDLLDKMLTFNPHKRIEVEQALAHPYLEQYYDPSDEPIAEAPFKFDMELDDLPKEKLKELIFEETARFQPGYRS
UniProt P49137, whole entry, looked up: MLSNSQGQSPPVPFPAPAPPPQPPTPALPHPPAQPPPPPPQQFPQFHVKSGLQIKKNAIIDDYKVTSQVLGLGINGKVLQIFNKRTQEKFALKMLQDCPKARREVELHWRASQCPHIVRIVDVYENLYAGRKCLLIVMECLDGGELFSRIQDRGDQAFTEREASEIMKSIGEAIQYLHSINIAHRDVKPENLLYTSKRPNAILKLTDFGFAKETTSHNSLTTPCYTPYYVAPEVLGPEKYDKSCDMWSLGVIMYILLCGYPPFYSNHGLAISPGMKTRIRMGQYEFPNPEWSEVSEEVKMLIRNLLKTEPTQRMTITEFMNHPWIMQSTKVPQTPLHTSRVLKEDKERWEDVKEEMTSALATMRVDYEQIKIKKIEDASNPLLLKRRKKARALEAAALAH
UniProt Q16620, whole entry, looked up: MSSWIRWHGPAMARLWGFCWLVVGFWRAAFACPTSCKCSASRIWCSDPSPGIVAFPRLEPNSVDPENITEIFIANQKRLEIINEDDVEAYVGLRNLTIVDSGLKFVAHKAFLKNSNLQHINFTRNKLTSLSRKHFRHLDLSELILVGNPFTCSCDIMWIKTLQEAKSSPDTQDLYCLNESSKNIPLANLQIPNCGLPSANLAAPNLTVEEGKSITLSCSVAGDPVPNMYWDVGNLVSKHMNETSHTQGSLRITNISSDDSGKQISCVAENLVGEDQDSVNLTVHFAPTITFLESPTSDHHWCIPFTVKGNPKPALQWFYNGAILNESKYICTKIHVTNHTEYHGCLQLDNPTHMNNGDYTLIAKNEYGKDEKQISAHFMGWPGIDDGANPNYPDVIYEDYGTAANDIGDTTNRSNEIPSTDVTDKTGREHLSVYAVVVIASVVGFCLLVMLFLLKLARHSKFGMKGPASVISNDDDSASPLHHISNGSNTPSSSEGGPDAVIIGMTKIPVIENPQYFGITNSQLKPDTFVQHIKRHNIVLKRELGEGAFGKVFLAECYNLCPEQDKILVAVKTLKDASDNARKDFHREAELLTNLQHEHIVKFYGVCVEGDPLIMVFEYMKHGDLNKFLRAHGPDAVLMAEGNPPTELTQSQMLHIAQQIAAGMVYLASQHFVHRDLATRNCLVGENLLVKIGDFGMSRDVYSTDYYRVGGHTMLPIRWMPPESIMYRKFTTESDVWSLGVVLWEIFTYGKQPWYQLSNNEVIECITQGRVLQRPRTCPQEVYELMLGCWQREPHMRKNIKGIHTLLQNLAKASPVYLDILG
UniProt Q96KB5: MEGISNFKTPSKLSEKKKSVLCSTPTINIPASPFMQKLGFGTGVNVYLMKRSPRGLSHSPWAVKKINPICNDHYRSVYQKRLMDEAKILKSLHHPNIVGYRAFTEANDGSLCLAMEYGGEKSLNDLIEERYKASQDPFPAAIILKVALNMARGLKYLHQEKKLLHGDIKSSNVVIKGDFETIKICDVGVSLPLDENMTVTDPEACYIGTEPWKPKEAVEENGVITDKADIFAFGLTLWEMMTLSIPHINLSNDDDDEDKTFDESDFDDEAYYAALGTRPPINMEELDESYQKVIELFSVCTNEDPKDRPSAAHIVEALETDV
UniProt Q15118, whole entry, looked up: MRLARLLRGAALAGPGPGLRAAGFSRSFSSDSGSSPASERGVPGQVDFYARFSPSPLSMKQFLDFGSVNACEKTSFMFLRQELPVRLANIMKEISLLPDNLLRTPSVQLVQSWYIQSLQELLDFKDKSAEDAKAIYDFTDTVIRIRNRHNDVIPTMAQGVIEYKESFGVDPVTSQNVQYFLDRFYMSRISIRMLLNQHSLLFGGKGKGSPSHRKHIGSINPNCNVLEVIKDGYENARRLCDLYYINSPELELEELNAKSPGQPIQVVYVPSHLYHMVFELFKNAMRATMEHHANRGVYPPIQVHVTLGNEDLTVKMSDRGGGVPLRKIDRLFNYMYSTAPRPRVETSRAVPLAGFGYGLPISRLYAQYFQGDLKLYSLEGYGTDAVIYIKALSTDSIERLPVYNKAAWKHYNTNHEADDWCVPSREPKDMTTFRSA

Experiments:
Experiment in all cases: kinase-Nluc reporter destabilization hit call (1 = scored as downregulated) (binary); higher = compound decreases kinase abundance
Conditions in all cases: K562; 2-18 h
IRAK3 = IRAK3 (UniProt Q9Y616)
JAK1 = JAK1 (UniProt P23458)
LCK = LCK (UniProt P06239)
LIMK1 = LIMK1 (UniProt P53667)
LIMK2 = LIMK2 (UniProt P53671)
LMTK2 = LMTK2 (UniProt Q8IWU2)
LYN = LYN (UniProt P07948)
MAP2K1 = MAP2K1 (UniProt Q02750)
MAP2K2 = MAP2K2 (UniProt P36507)
MAP4K2 = MAP4K2 (UniProt Q12851)
MAPK1 = MAPK1 (UniProt P28482)
MAPK4 = MAPK4 (UniProt P31152)
MAPKAPK2 = MAPKAPK2 (UniProt P49137)
MKNK1 = MKNK1 (UniProt Q9BUB5)
NTRK2 = NTRK2 (UniProt Q16620)
NTRK3 = NTRK3 (UniProt Q16288)
PAK4 = PAK4 (UniProt O96013)
PBK = PBK (UniProt Q96KB5)
PDGFRB = PDGFRB (UniProt P09619)
PDK1 = PDK1 (UniProt Q15118)

Measured: kinase-Nluc reporter destabilization hit call

Cc1ccccc1-n1c(Cn2ncc3c(N)ncnc32)nc2cccc(C)c2c1=O (10 µM)
inactive: IRAK3 = 0 | JAK1 = 0 | LCK 0 | LIMK1 = 0 | LIMK2 = 0 | LMTK2 = 0 | LYN 0 | MAP2K1 = 0 | MAP2K2 = 0 | MAP4K2 = 0 | MAPK1 = 0 | MAPK4 = 0 | MAPKAPK2 = 0 | MKNK1 = 0 | NTRK2 = 0 | NTRK3 = 0 | PAK4 = 0 | PBK 0 | PDGFRB 0 | PDK1 = 0

CCCCNc1nc(N)c2[nH]c(=O)n(Cc3ccc(C)nc3)c2n1 (10 µM)
inactive: IRAK3 = 0 | JAK1 = 0 | LCK 0 | LIMK1 = 0 | LIMK2 = 0 | LMTK2 = 0 | LYN 0 | MAP2K1 = 0 | MAP2K2 = 0 | MAP4K2 = 0 | MAPK1 = 0 | MAPK4 = 0 | MAPKAPK2 = 0 | MKNK1 = 0 | NTRK2 = 0 | NTRK3 = 0 | PAK4 = 0 | PBK 0 | PDGFRB 0 | PDK1 = 0

Cn1cc(C2=C(c3cn(C4CCN(Cc5ccccn5)CC4)c4ccccc34)C(=O)NC2=O)c2ccccc21 [Enzastaurin] (10 µM)
inactive: IRAK3 = 0 | JAK1 = 0 | LCK 0 | LIMK1 = 0 | LIMK2 = 0 | LMTK2 = 0 | LYN 0 | MAP2K1 = 0 | MAP2K2 = 0 | MAP4K2 = 0 | MAPK1 = 0 | MAPK4 = 0 | MAPKAPK2 = 0 | MKNK1 = 0 | NTRK2 = 0 | NTRK3 = 0 | PAK4 = 0 | PBK 0 | PDGFRB 0 | PDK1 = 0

COc1ccc2c(c1OC)C(OC)N(C)c1c-2ccc2cc3c(cc12)OCO3 (centres undefined) [Angoline] (10 µM)
inactive: IRAK3 = 0 | JAK1 = 0 | LCK 0 | LIMK1 = 0 | LIMK2 = 0 | LMTK2 = 0 | LYN 0 | MAP2K1 = 0 | MAP2K2 = 0 | MAP4K2 = 0 | MAPK1 = 0 | MAPK4 = 0 | MAPKAPK2 = 0 | MKNK1 = 0 | NTRK2 = 0 | NTRK3 = 0 | PAK4 = 0 | PBK 0 | PDGFRB 0 | PDK1 = 0

COC[C@H]1OC(=O)c2coc3c2[C@@]1(C)C1=C(C3=O)[C@@H]2CCC(=O)[C@@]2(C)C[C@H]1OC(C)=O [Wortmannin] (2.5 µM)
inactive: IRAK3 = 0 | JAK1 = 0 | LCK 0 | LIMK1 = 0 | LIMK2 = 0 | LMTK2 = 0 | LYN 0 | MAP2K1 = 0 | MAP2K2 = 0 | MAP4K2 = 0 | MAPK1 = 0 | MAPK4 = 0 | MAPKAPK2 = 0 | MKNK1 = 0 | NTRK2 = 0 | NTRK3 = 0 | PAK4 = 0 | PBK 0 | PDGFRB 0 | PDK1 = 0

O=C(N[C@@H](COc1ccc2[nH]c(=O)[nH]c2c1)c1ccccc1)c1cccn(Cc2ccc(F)c(F)c2)c1=O (2.5 µM)
inactive: IRAK3 = 0 | JAK1 = 0 | LCK 0 | LIMK1 = 0 | LIMK2 = 0 | LMTK2 = 0 | LYN 0 | MAP2K1 = 0 | MAP2K2 = 0 | MAP4K2 = 0 | MAPK1 = 0 | MAPK4 = 0 | MAPKAPK2 = 0 | MKNK1 = 0 | NTRK2 = 0 | NTRK3 = 0 | PAK4 = 0 | PBK 0 | PDGFRB 0 | PDK1 = 0

N#CC(C#N)=Cc1ccc(O)c(O)c1 [Tyrphostin 23] (10 µM)
inactive: IRAK3 = 0 | JAK1 = 0 | LCK 0 | LIMK1 = 0 | LIMK2 = 0 | LMTK2 = 0 | LYN 0 | MAP2K1 = 0 | MAP2K2 = 0 | MAP4K2 = 0 | MAPK1 = 0 | MAPK4 = 0 | MAPKAPK2 = 0 | MKNK1 = 0 | NTRK2 = 0 | NTRK3 = 0 | PAK4 = 0 | PBK 0 | PDGFRB 0 | PDK1 = 0

CC(=O)OC(C)(C)/C=C/C(=O)[C@](C)(O)[C@H]1[C@H](O)C[C@@]2(C)[C@@H]3CC=C4[C@@H](C=C(O)C(=O)C4(C)C)[C@]3(C)C(=O)C[C@]12C [Cucurbitacin E] (2.5 µM)
inactive: IRAK3 = 0 | JAK1 = 0 | LCK 0 | LIMK1 = 0 | LIMK2 = 0 | LMTK2 = 0 | LYN 0 | MAP2K1 = 0 | MAP2K2 = 0 | MAP4K2 = 0 | MAPK1 = 0 | MAPK4 = 0 | MAPKAPK2 = 0 | MKNK1 = 0 | NTRK2 = 0 | NTRK3 = 0 | PAK4 = 0 | PBK 0 | PDGFRB 0 | PDK1 = 0

Cc1n[nH]cc1-c1cc2nc([C@@H]3CC4CCN3CC4)[nH]c(=O)c2s1 [Simurosertib] (2.5 µM)
inactive: IRAK3 = 0 | JAK1 = 0 | LCK 0 | LIMK1 = 0 | LIMK2 = 0 | LMTK2 = 0 | LYN 0 | MAP2K1 = 0 | MAP2K2 = 0 | MAP4K2 = 0 | MAPK1 = 0 | MAPK4 = 0 | MAPKAPK2 = 0 | MKNK1 = 0 | NTRK2 = 0 | NTRK3 = 0 | PAK4 = 0 | PBK 0 | PDGFRB 0 | PDK1 = 0

O=c1[nH]c2ccccc2n1C1CCN(CCCC(c2ccc(F)cc2)c2ccc(F)cc2)CC1 [Pimozide] (2.5 µM)
inactive: IRAK3 = 0 | JAK1 = 0 | LCK 0 | LIMK1 = 0 | LIMK2 = 0 | LMTK2 = 0 | LYN 0 | MAP2K1 = 0 | MAP2K2 = 0 | MAP4K2 = 0 | MAPK1 = 0 | MAPK4 = 0 | MAPKAPK2 = 0 | MKNK1 = 0 | NTRK2 = 0 | NTRK3 = 0 | PAK4 = 0 | PBK 0 | PDGFRB 0 | PDK1 = 0

CCN1CCN(C(=O)Cc2ccc(Nc3ncc(F)c(Nc4ccc(C(=O)Nc5ccccc5Cl)cc4)n3)cc2)CC1 (2.5 µM)
inactive: IRAK3 = 0 | JAK1 = 0 | LCK 0 | LIMK1 = 0 | LIMK2 = 0 | LMTK2 = 0 | LYN 0 | MAP2K1 = 0 | MAP2K2 = 0 | MAP4K2 = 0 | MAPK1 = 0 | MAPK4 = 0 | MAPKAPK2 = 0 | MKNK1 = 0 | NTRK2 = 0 | NTRK3 = 0 | PAK4 = 0 | PBK 0 | PDGFRB 0 | PDK1 = 0

N#CC(C#N)=Cc1ccc([N+](=O)[O-])c(O)c1 (10 µM)
inactive: IRAK3 = 0 | JAK1 = 0 | LCK 0 | LIMK1 = 0 | LIMK2 = 0 | LMTK2 = 0 | LYN 0 | MAP2K1 = 0 | MAP2K2 = 0 | MAP4K2 = 0 | MAPK1 = 0 | MAPK4 = 0 | MAPKAPK2 = 0 | MKNK1 = 0 | NTRK2 = 0 | NTRK3 = 0 | PAK4 = 0 | PBK 0 | PDGFRB 0 | PDK1 = 0

Some of these compounds in order of length of the SMILES, ascending:
N#CC(C#N)=Cc1ccc(O)c(O)c1 [Tyrphostin 23] (10 µM)
inactive: IRAK3 = 0 | JAK1 = 0 | LCK 0 | LIMK1 = 0 | LIMK2 = 0 | LMTK2 = 0 | LYN 0 | MAP2K1 = 0 | MAP2K2 = 0 | MAP4K2 = 0 | MAPK1 = 0 | MAPK4 = 0 | MAPKAPK2 = 0 | MKNK1 = 0 | NTRK2 = 0 | NTRK3 = 0 | PAK4 = 0 | PBK 0 | PDGFRB 0 | PDK1 = 0

CCN1CCN(C(=O)Cc2ccc(Nc3ncc(F)c(Nc4ccc(C(=O)Nc5ccccc5Cl)cc4)n3)cc2)CC1 (2.5 µM)
inactive: IRAK3 = 0 | JAK1 = 0 | LCK 0 | LIMK1 = 0 | LIMK2 = 0 | LMTK2 = 0 | LYN 0 | MAP2K1 = 0 | MAP2K2 = 0 | MAP4K2 = 0 | MAPK1 = 0 | MAPK4 = 0 | MAPKAPK2 = 0 | MKNK1 = 0 | NTRK2 = 0 | NTRK3 = 0 | PAK4 = 0 | PBK 0 | PDGFRB 0 | PDK1 = 0

CC(=O)OC(C)(C)/C=C/C(=O)[C@](C)(O)[C@H]1[C@H](O)C[C@@]2(C)[C@@H]3CC=C4[C@@H](C=C(O)C(=O)C4(C)C)[C@]3(C)C(=O)C[C@]12C [Cucurbitacin E] (2.5 µM)
inactive: IRAK3 = 0 | JAK1 = 0 | LCK 0 | LIMK1 = 0 | LIMK2 = 0 | LMTK2 = 0 | LYN 0 | MAP2K1 = 0 | MAP2K2 = 0 | MAP4K2 = 0 | MAPK1 = 0 | MAPK4 = 0 | MAPKAPK2 = 0 | MKNK1 = 0 | NTRK2 = 0 | NTRK3 = 0 | PAK4 = 0 | PBK 0 | PDGFRB 0 | PDK1 = 0

The results go on:

O=C1c2ccccc2C(=O)c2c1cccc2-c1cnn(C2CCNCC2)c1 [PDK4-IN-1 (hydrochloride)] (10 µM)
inactive: IRAK3 = 0 | JAK1 = 0 | LCK 0 | LIMK1 = 0 | LIMK2 = 0 | LMTK2 = 0 | LYN 0 | MAP2K1 = 0 | MAP2K2 = 0 | MAP4K2 = 0 | MAPK1 = 0 | MAPK4 = 0 | MAPKAPK2 = 0 | MKNK1 = 0 | NTRK2 = 0 | NTRK3 = 0 | PAK4 = 0 | PBK 0 | PDGFRB 0 | PDK1 = 0

COc1cc2c(cc1F)C(c1ccccc1Cl)=Nc1c(n[nH]c1C)N2 (0.5 µM)
inactive: IRAK3 = 0 | JAK1 = 0 | LCK 0 | LIMK1 = 0 | LIMK2 = 0 | LMTK2 = 0 | LYN 0 | MAP2K1 = 0 | MAP2K2 = 0 | MAP4K2 = 0 | MAPK1 = 0 | MAPK4 = 0 | MAPKAPK2 = 0 | MKNK1 = 0 | NTRK2 = 0 | NTRK3 = 0 | PAK4 = 0 | PBK 0 | PDGFRB 0 | PDK1 = 0

CC1=C[C@]23C(=O)[C@@H](C=C(CO)[C@@H](O)[C@]2(O)[C@H]1O)[C@H]1[C@@H](C[C@H]3C)C1(C)C [Ingenol] (10 µM)
inactive: IRAK3 = 0 | JAK1 = 0 | LCK 0 | LIMK1 = 0 | LIMK2 = 0 | LMTK2 = 0 | LYN 0 | MAP2K1 = 0 | MAP2K2 = 0 | MAP4K2 = 0 | MAPK1 = 0 | MAPK4 = 0 | MAPKAPK2 = 0 | MKNK1 = 0 | NTRK2 = 0 | NTRK3 = 0 | PAK4 = 0 | PBK 0 | PDGFRB 0 | PDK1 = 0

NCCc1cn(S(=O)(=O)c2c(Cl)nc3sccn23)c2ccccc12 (10 µM)
inactive: IRAK3 = 0 | JAK1 = 0 | LCK 0 | LIMK1 = 0 | LIMK2 = 0 | LMTK2 = 0 | LYN 0 | MAP2K1 = 0 | MAP2K2 = 0 | MAP4K2 = 0 | MAPK1 = 0 | MAPK4 = 0 | MAPKAPK2 = 0 | MKNK1 = 0 | NTRK2 = 0 | NTRK3 = 0 | PAK4 = 0 | PBK 0 | PDGFRB 0 | PDK1 = 0

COc1ccc2c(c1)/C(=C/c1cnc[nH]1)C(=O)N2 (2.5 µM)
inactive: IRAK3 = 0 | JAK1 = 0 | LCK 0 | LIMK1 = 0 | LIMK2 = 0 | LMTK2 = 0 | LYN 0 | MAP2K1 = 0 | MAP2K2 = 0 | MAP4K2 = 0 | MAPK1 = 0 | MAPK4 = 0 | MAPKAPK2 = 0 | MKNK1 = 0 | NTRK2 = 0 | NTRK3 = 0 | PAK4 = 0 | PBK 0 | PDK1 = 0

CC1C(=O)OC2C(O)C34C5OC(=O)C3(OC3OC(=O)C(O)C34C(C(C)(C)C)C5O)C12O (centres undefined) [Ginkgolide C] (10 µM)
inactive: IRAK3 = 0 | JAK1 = 0 | LCK 0 | LIMK1 = 0 | LIMK2 = 0 | LMTK2 = 0 | LYN 0 | MAP2K1 = 0 | MAP2K2 = 0 | MAP4K2 = 0 | MAPK1 = 0 | MAPK4 = 0 | MAPKAPK2 = 0 | MKNK1 = 0 | NTRK2 = 0 | NTRK3 = 0 | PAK4 = 0 | PBK 0 | PDGFRB 0 | PDK1 = 0
